Reference: patent US10011631B2, “Stapled helical peptides and methods of synthesis” (The University of Hong Kong, priority 2015, dated 2018)
Not every detail of the peptide structures is certain; ends, links or a residue may be inferred.

Target: MAGUK GK domain
Test: ITC binding to the MAGUK GK domain
Settings: from ITC studies; read-out: binding affinity with the GK domain

SMILES: CC[C@H](C)[C@H](NC(=O)[C@H](C)NC(=O)[C@@H]1CCC(O)CNC(=O)C[C@H](NC(=O)[C@H](CCCNC(=N)N)NC(=O)[C@H](CCCNC(=N)N)NC(=O)[C@H](C)N)C(=O)N[C@@H](CCC(=O)O)C(=O)N[C@@H](Cc2ccc(O)cc2)C(=O)N[C@@H](CC(C)C)C(=O)N1)C(=O)N[C@@H](CCC(N)=O)C(N)=O (stereo partly drawn) [compound 2, Ala-Arg-Arg-Asp(Salicylaldehyde Ester)-Glu-Tyr-Leu-Lys(5-OH)-Ala-Ile-Gln Stapled Peptide]
- Kd: 5.9 µM
